Reference: PubChem BioAssay AID248 (DTP/NCI, 2004)
The list does not hold the whole screen: it is rich in T/C values a quarter to a half above the control, in often repeated tests (any T/C) and in doses without a T/C. Other doses and runs of a compound stand elsewhere. T/C is the treated group as % of the vehicle group. Some doses have a count of surviving animals in place of a T/C: the source files T/C as zero there, which appears to mark a toxic dose or a test without result, not a measured value. Some doses without a T/C left all or most animals alive at the check, yet need not have been tolerated: survival well below the control is almost never listed, so the zero probably covers shortened survival too. Survivors were counted at the toxicity check, usually on the fifth day, unless a day is given; later deaths do not show. Schedules are NCI's codes, taken here to give the interval after Q, in days (D) or hours (H), and the number of doses after X. Some schedules carry Z or #; the key to these is not given. Some doses were run more than once; the values are given in rising order. For survival time, this PubChem deposit counts one and a half times the control or more as active, and values a quarter to a half above the control carry no call in these data; other NCI protocols may use other cut-offs. Some T/C values are followed by the survivors on the day toxicity was checked, most often the fifth; where none is given, no animal had died by that day.

Tested on: L1210 leukemia ip in BDF1 mice, survival T/C
Assay: NCI In Vivo Anticancer Drug Screen. Data for tumor model L1210 Leukemia (intraperitoneal) in B6D2F1 (BDF1) mice
Conditions: T/C endpoint: mean survival time, higher T/C = longer survival
[1] = dose: 100.0 mg/kg/injection, schedule: Q01DX009 (ip), vehicle: saline with Tween-80
[2] = dose: 200.0 mg/kg/injection, schedule: Q01DX009 (ip), vehicle: saline with Tween-80

COc1ccc(Cc2c3cc(OC)c(OC)cc3cc[n+]2C)cc1OC
survivor count [1]: 1 of 6
survivor count [2]: 1 of 6
survivor count (dose: 400.0 mg/kg/injection, schedule: Q04DX003 (ip), vehicle: saline with Tween-80): 1 of 6

COc1ccc(NC(=O)N(CCCl)N=O)cc1
T/C (dose: 2.5 mg/kg/injection, schedule: Q01DX Z (ip), vehicle: carboxymethylcellulose (CMC)): 131 % of control
T/C (dose: 10.0 mg/kg/injection, schedule: Q01DX Z (ip), vehicle: carboxymethylcellulose (CMC)): 144 % of control
T/C (dose: 15.0 mg/kg/injection, schedule: Q01DX001 (ip), vehicle: saline): 141 % of control
T/C (dose: 15.0 mg/kg/injection, schedule: Q01DX Z (ip), vehicle: carboxymethylcellulose (CMC)): 146 % of control
T/C (dose: 22.0 mg/kg/injection, schedule: Q01DX015 (ip), vehicle: saline): 126 % of control
survivor count (dose: 22.0 mg/kg/injection, schedule: Q01DX Z (ip), vehicle: carboxymethylcellulose (CMC)): 6 of 6
T/C (dose: 30.0 mg/kg/injection, schedule: Q01DX001 (ip), vehicle: saline): 146 % of control [9 of 10 alive]
survivor count (dose: 158.4 mg/kg/injection, schedule: Q01DX001 (ip), vehicle: carboxymethylcellulose (CMC)): 9 of 10

CC/C=N/Nc1ccc([N+](=O)[O-])cc1[N+](=O)[O-]
survivor count [1]: 5 of 6
survivor count [2]: 6 of 6
survivor count (dose: 400.0 mg/kg/injection, schedule: Q01DX009 (ip), vehicle: saline with Tween-80): 6 of 6

CCOC(=O)CNC(=O)CBr
survivor count (dose: 40.0 mg/kg/injection, schedule: Q01DX Z (ip), vehicle: other): 2 of 6
survivor count (dose: 80.0 mg/kg/injection, schedule: Q01DX Z (ip), vehicle: other): 0 of 6

C=C(NC(=O)C(=C)NC(=O)c1csc(C2=NC3c4csc(n4)C4NC(=O)c5csc(n5)C(C(C)(O)C(C)O)NC(=O)C5CSC(=N5)/C(=C/C)NC(=O)C(C(C)O)NC(=O)c5csc(n5)C3(CC2)NC(=O)C(C)NC(=O)C(=C)NC(=O)C(C)NC(=O)C(C(C)CC)NC2C=Cc3c(C(C)O)cc(nc3C2O)C(=O)OC4C)n1)C(N)=O (stereo unspecified)
T/C (dose: 200.0 mg/kg/injection, schedule: Q04DX003 (ip), vehicle: saline): 135 % of control
T/C (dose: 266.0 mg/kg/injection, schedule: Q01DX001 (ip), vehicle: saline): 125 % of control
T/C (dose: 400.0 mg/kg/injection, schedule: Q01DX001 (ip), vehicle: saline): 128 % of control
T/C (dose: 400.0 mg/kg/injection, schedule: Q04DX003 (ip), vehicle: saline): 139 % of control
T/C (dose: 600.0 mg/kg/injection, schedule: Q01DX001 (ip), vehicle: saline): 130 % of control
T/C (dose: 900.0 mg/kg/injection, schedule: Q01DX001 (ip), vehicle: saline): 141 % of control

CO[C@H]1/C=C/O[C@@]2(C)Oc3c(C)c(O)c4c(O)c(c(/C=N/N5CCN(C)CC5)c(O)c4c3C2=O)NC(=O)/C(C)=C\C=C\[C@H](C)[C@H](O)[C@@H](C)[C@@H](O)[C@@H](C)[C@H](OC(C)=O)[C@@H]1C
survivor count (dose: 200.0 mg/kg/injection, schedule: Q01DX009 (ip), vehicle: Klucel (hydroxypropylcellulose) (HPC)): 2 of 6
survivor count (dose: 400.0 mg/kg/injection, schedule: Q01DX009 (ip), vehicle: Klucel (hydroxypropylcellulose) (HPC)): 0 of 6
survivor count (dose: 400.0 mg/kg/injection, schedule: Q01DX009 (ip), vehicle: saline): 3 of 6
survivor count (dose: 600.0 mg/kg/injection, schedule: Q01DX009 (ip), vehicle: saline): 0 of 6
survivor count (dose: 800.0 mg/kg/injection, schedule: Q01DX001 (ip), vehicle: acetone): 2 of 6 and 3 of 6
survivor count (dose: 800.0 mg/kg/injection, schedule: Q01DX009 (ip), vehicle: saline): 0 of 6
survivor count (dose: 1000.0 mg/kg/injection, schedule: Q01DX009 (ip), vehicle: saline): 0 of 6
survivor count (dose: 1200.0 mg/kg/injection, schedule: Q01DX001 (ip), vehicle: acetone): 0 of 6
survivor count (dose: 1600.0 mg/kg/injection, schedule: Q01DX001 (ip), vehicle: acetone): 0 of 6 and 3 of 6
survivor count (dose: 2000.0 mg/kg/injection, schedule: Q01DX001 (ip), vehicle: acetone): 0 of 6 and 3 of 6

O=NN(CCCl)C(=O)NC1Cc2ccccc2C1
T/C (dose: 16.0 mg/kg/injection, schedule: Q01DX001 (ip), vehicle: other): 126 % of control
T/C (dose: 31.0 mg/kg/injection, schedule: Q01DX001 (ip), vehicle: other): 141 % of control
survivor count (dose: 750.0 mg/kg/injection, schedule: Q01DX001 (ip), vehicle: other): 5 of 6
survivor count (dose: 1000.0 mg/kg/injection, schedule: Q01DX001 (ip), vehicle: other): 2 of 6
